# Source: paper PMC3572039
# A negative result means that nothing was seen under these conditions. Protein sequences can lack the tags named with them.
# Target: T1, MBP-Δ116 (truncated XydR response regulator) del1-116 (UniProt B8I0K9)
# T1 sequence (looked up): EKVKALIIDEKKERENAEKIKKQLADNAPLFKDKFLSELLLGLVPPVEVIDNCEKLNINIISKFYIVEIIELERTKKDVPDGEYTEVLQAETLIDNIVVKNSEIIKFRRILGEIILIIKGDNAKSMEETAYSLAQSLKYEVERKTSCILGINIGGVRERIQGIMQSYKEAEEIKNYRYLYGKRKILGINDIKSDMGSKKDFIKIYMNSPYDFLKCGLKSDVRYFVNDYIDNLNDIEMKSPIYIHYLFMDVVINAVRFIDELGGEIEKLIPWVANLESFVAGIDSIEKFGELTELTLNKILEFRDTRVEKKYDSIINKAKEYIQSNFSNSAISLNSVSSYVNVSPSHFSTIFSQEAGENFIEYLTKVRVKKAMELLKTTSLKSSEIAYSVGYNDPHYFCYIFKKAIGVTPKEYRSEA
# Experiment: EMSA
# Details: 10 mM Tris pH 7.5, 150 mM KCl, 1 mM DTT, 30 ng/uL salmon sperm DNA, 0.1 ug/uL BSA, 0.05% NP-40, 2.5% glycerol, 20 C, 20 min; 20 fmol probe; 5% native PAGE; recombinant protein; residues 117-532; protein details: N-terminal MBP (pMAL-c2x); label: 3' biotin; probe letters rebuilt from the primers and the genome
sequence,measurement,value
GAGGGACACTTCTTACAGGCGGAGTAGGTAATGTGGTTGGAAGCTTGTTTGGAGTAATGATAAAGGGTACAATAGAATCAATAATAACATTTCAGGGTACATTGTCCTCATGGTGGACAAAAATTGCAATAGCGGCCCTCCTTTGCATATTTATTATACTCCAGAGTATATTCGCAGCATTAAAGAGAAAGAGGCAGTTTTAACACTGTCTCTTTCAGTGCCCTCTTGCTTGAAGTACAAATGAGAGGAGAAATGTTAATGAAAATAAAAAAATATTTAGGTGTATCATTAAAATCAAAGATGAGAGCT (double strand) [R1 (upstream Ccel_1227)],binding result,no binding
